Test results published in PubChem BioAssay AID330 (DTP/NCI, 2004).
The list is a part of this screen's results and no random one: it gathers tests that were run many times, whatever their T/C, doses with no T/C, and many T/C values between a quarter and a half above the control. Other doses and runs of a compound stand elsewhere. T/C: endpoint of the treated group in % of that of the vehicle group. Some doses have a count of surviving animals in place of a T/C: the source holds a T/C of zero for them, seemingly a mark for toxic or unscored doses. Some survivor counts are full or nearly so, which does not show that the dose was tolerated: the source hardly ever lists a survival T/C far under the control, and the zero likely stands for such cases as well. Survivors were counted at the toxicity check, usually on the fifth day, unless a day is given; later deaths do not show. Schedule codes are those of the source, read here as Q, the interval in days (D) or hours (H), X, the number of doses. Some doses were run more than once; their values stand side by side, smallest first. For survival time, the PubChem record calls one and a half times the control and up active, and a quarter to a half above the control has no call in these data; cut-offs in other NCI protocols can differ. Some T/C values carry the count of animals alive at the toxicity check (mostly the fifth day); where none is given, no animal had died by that day.

Test system: P388 leukemia ip, CD2F1 mice, survival T/C
Assay: NCI In Vivo Anticancer Drug Screen. Data for tumor model P388 Leukemia (intraperitoneal) in CD2F1 (CDF1) mice
Conditions: T/C endpoint: median survival time, higher T/C = longer survival
[1] = dose: 50.0 mg/kg/injection, schedule: Q01DX009 (ip), vehicle: saline
[2] = dose: 100.0 mg/kg/injection, schedule: Q01DX009 (ip), vehicle: saline
[3] = dose: 200.0 mg/kg/injection, schedule: Q01DX009 (ip), vehicle: saline
[4] = dose: 100.0 mg/kg/injection, schedule: Q01DX005 (ip), vehicle: Klucel (hydroxypropylcellulose) (HPC)
[5] = dose: 200.0 mg/kg/injection, schedule: Q01DX005 (ip), vehicle: Klucel (hydroxypropylcellulose) (HPC)
[6] = dose: 50.0 mg/kg/injection, schedule: Q01DX009 (ip), vehicle: Klucel (hydroxypropylcellulose) (HPC)
[7] = dose: 200.0 mg/kg/injection, schedule: Q01DX009 (ip), vehicle: Klucel (hydroxypropylcellulose) (HPC)
[8] = dose: 100.0 mg/kg/injection, schedule: Q01DX005 (ip), vehicle: saline with Tween-80
[9] = dose: 200.0 mg/kg/injection, schedule: Q01DX005 (ip), vehicle: saline with Tween-80
[10] = dose: 25.0 mg/kg/injection, schedule: Q01DX005 (ip), vehicle: saline
[11] = dose: 50.0 mg/kg/injection, schedule: Q01DX005 (ip), vehicle: saline
[12] = dose: 100.0 mg/kg/injection, schedule: Q01DX005 (ip), vehicle: saline
[13] = dose: 200.0 mg/kg/injection, schedule: Q01DX005 (ip), vehicle: saline
[14] = dose: 50.0 mg/kg/injection, schedule: Q01DX005 (ip), vehicle: saline with Tween-80

For CCCCCCCCCCCCCCC[N+]1(CC)CCCC1, the survivor count (dose: 3.12 mg/kg/injection, schedule: Q01DX009 (ip), vehicle: saline) was 5 of 6, the survivor count (dose: 6.25 mg/kg/injection, schedule: Q01DX009 (ip), vehicle: saline) was 3 of 6 and the survivor count (dose: 12.5 mg/kg/injection, schedule: Q01DX009 (ip), vehicle: saline) was 1 of 6. For the same compound, the survivor count [1] was 0 of 6, the survivor count [2] was 0 of 6 and the survivor count [3] was 0 of 6.
For CN(C)/C(=C(\CBr)C(=O)c1ccc(-c2ccccc2)cc1)c1ccccc1, the survivor count [4] was 0 of 6 and the survivor count [5] was 0 of 6.
For O=[N+]([O-])c1ccc(O)c(O)c1, the survivor count [2] was 0 of 6, the survivor count [3] was 0 of 6 and the survivor count (dose: 400.0 mg/kg/injection, schedule: Q01DX009 (ip), vehicle: saline) was 0 of 6. For the same compound, the survivor count (dose: 600.0 mg/kg/injection, schedule: Q01DX009 (ip), vehicle: saline) was 0 of 6.
For COc1ccc(-c2sc(/N=C/c3ccc(N(C)CCC#N)cc3)c(C#N)c2C)cc1OC, the survivor count [6] was 6 of 6, the survivor count (dose: 100.0 mg/kg/injection, schedule: Q01DX009 (ip), vehicle: Klucel (hydroxypropylcellulose) (HPC)) was 6 of 6 and the survivor count [7] was 6 of 6. The survivor count (dose: 400.0 mg/kg/injection, schedule: Q01DX009 (ip), vehicle: Klucel (hydroxypropylcellulose) (HPC)) was 6 of 6.
O=C(O)C1C(C(=O)O)C2(Cl)C(Cl)=C(Cl)C1(Cl)C2(Cl)Cl.[Mn] (centres undefined) was tested, and the survivor count (dose: 200.0 mg/kg/injection, schedule: Q04DX003 (ip), vehicle: saline sonified) was 2 of 6.
With Cc1cc2n[se]nc2cc1C the survivor count [6] was 5 of 6.
C/C(=N/NC(=O)CCl)c1ccccc1 was tested, and the survivor count (dose: 150.0 mg/kg/injection, schedule: Q01DX009 (ip), vehicle: saline with Tween-80) was 4 of 6 and the survivor count (dose: 300.0 mg/kg/injection, schedule: Q01DX009 (ip), vehicle: saline with Tween-80) was 1 of 6.
CCCCCCCCCCCCCCCCCC[N+]1(CC)CCCC1 was tested, and the survivor count [1] was 0 of 6, the survivor count [2] was 0 of 6 and the survivor count [3] was 0 of 6.
CN=C(NC)c1ccc(NC(=O)/C=C/C(=O)Nc2ccc(C(=NC)NC)cc2)cc1 was tested, and the survivor count [8] was 2 of 6 and the survivor count [9] was 0 of 6.
With CN1C(=O)N(c2cc(Cl)cc(Cl)c2)C(=N)C1=S the survivor count (dose: 240.0 mg/kg/injection, schedule: Q01DX005 (ip), vehicle: Klucel + Tween-80) was 6 of 6.
For CN(C)P(=O)(N(C)C)N1CCC1, the survivor count [3] was 6 of 6.
For O=[N+]([O-])CCCN=NN1CCCCC1, the survivor count (dose: 100.0 mg/kg/injection, schedule: Q04DX002 (ip), vehicle: saline) was 6 of 6, the survivor count (dose: 200.0 mg/kg/injection, schedule: Q04DX002 (ip), vehicle: saline) was 6 of 6 and the survivor count (dose: 400.0 mg/kg/injection, schedule: Q04DX002 (ip), vehicle: saline) was 6 of 6.
For COc1cc(NCCCC2CCCCN2)c2ncccc2c1OC (centres undefined), the survivor count [10] was 2 of 5, the survivor count [11] was 0 of 5 and the survivor count [12] was 0 of 5. For the same compound, the survivor count [13] was 0 of 5.
In the case of O=C(CCSC1=NCCCN1)c1ccc(F)cc1, the T/C (dose: 12.5 mg/kg/injection, schedule: Q01DX009 (ip), vehicle: saline with Tween-80) is reported as 128 % of control, the survivor count (dose: 50.0 mg/kg/injection, schedule: Q01DX009 (ip), vehicle: saline with Tween-80) is reported as 2 of 6 and the survivor count (dose: 100.0 mg/kg/injection, schedule: Q01DX009 (ip), vehicle: saline with Tween-80) is reported as 0 of 6. For the same compound, the survivor count (dose: 200.0 mg/kg/injection, schedule: Q01DX009 (ip), vehicle: saline with Tween-80) was 0 of 6.
For COc1ccc2nc(N/N=C/c3ccccn3)cc(C)c2c1, the survivor count [14] was 6 of 6, the T/C [8] was 125 % of control [5 of 6 alive] and the survivor count [8] was 1 of 6. The survivor count [9] was 0 of 6 and 1 of 6.
For COc1cc(NCCN(C)C(C)Cc2ccccc2)c2ncccc2c1 (centres undefined), the survivor count [13] was 0 of 5.
O=[N+]([O-])/C=C/c1ccc(Cl)cc1Cl was tested, and the survivor count (dose: 160.0 mg/kg/injection, schedule: Q04DX003 (ip), vehicle: saline with Tween-80) was 2 of 6.
COC(=O)C1=C(C(=O)OC)P2(C)(C)SC(=S)N2C1(c1ccccc1)c1ccccc1 was tested, and the survivor count [5] was 4 of 6.
With COC(=O)c1cc(O)c2c(c1C(=O)OC)C[C@H]1[C@@H]3CCC4=CC(=O)CC[C@]4(C)[C@H]3CC[C@]21C the survivor count (dose: 6.0 mg/kg/injection, schedule: Q01DX005 (ip), vehicle: saline with Tween-80) was 6 of 6, the survivor count (dose: 12.5 mg/kg/injection, schedule: Q01DX005 (ip), vehicle: saline with Tween-80) was 6 of 6 and the survivor count (dose: 25.0 mg/kg/injection, schedule: Q01DX005 (ip), vehicle: saline with Tween-80) was 6 of 6. For the same compound, the survivor count [14] was 6 of 6 and the survivor count [8] was 6 of 6.
For Cc1nn(C(=O)c2ccncc2)c(C)c1N=Nc1ccc([N+](=O)[O-])cc1, the survivor count [7] was 3 of 6.
For OC1CCCC1NC1CCCCC1 (centres undefined), the survivor count (dose: 60.0 mg/kg/injection, schedule: Q01DX005 (ip), vehicle: Klucel (hydroxypropylcellulose) (HPC)) was 0 of 6, the survivor count (dose: 120.0 mg/kg/injection, schedule: Q01DX005 (ip), vehicle: Klucel (hydroxypropylcellulose) (HPC)) was 2 of 6 and the survivor count (dose: 240.0 mg/kg/injection, schedule: Q01DX005 (ip), vehicle: Klucel (hydroxypropylcellulose) (HPC)) was 0 of 6.
For CCN(CC)CCCC(C)Nc1ccc2cc(OC)ccc2n1 (centres undefined), the survivor count [10] was 1 of 5, the survivor count [11] was 0 of 5 and the survivor count [12] was 0 of 5. For the same compound, the survivor count [13] was 0 of 5.
In the case of O=c1ccnc[nH]1, the survivor count (dose: 400.0 mg/kg/injection, schedule: Q04DX002 (ip), vehicle: saline with Tween-80) is reported as 3 of 6.
In the case of CN(N=O)C(=O)N[C@@H](C=O)[C@@H](O)[C@H](O)[C@H](O)CO, the T/C (dose: 120.0 mg/kg/injection, schedule: Q04DX003 (ip), vehicle: citric acid) is reported as 125 % of control, the T/C (dose: 120.0 mg/kg/injection, schedule: Q04DX003 (ip), vehicle: other) is reported as 137 % of control and the T/C (dose: 180.0 mg/kg/injection, schedule: Q04DX003 (ip), vehicle: other) is reported as 128 % of control. The T/C (dose: 250.0 mg/kg/injection, schedule: Q01DX001 (ip), vehicle: other) was 125 and 137 % of control and the T/C (dose: 500.0 mg/kg/injection, schedule: Q01DX001 (ip), vehicle: other) was 130 % of control.
For CCCCN(CCCC)C(=N)/C=C/c1ccccc1, the survivor count (dose: 25.0 mg/kg/injection, schedule: Q01DX005 (ip), vehicle: Klucel (hydroxypropylcellulose) (HPC)) was 0 of 5, the survivor count (dose: 50.0 mg/kg/injection, schedule: Q01DX005 (ip), vehicle: Klucel (hydroxypropylcellulose) (HPC)) was 0 of 5 and the survivor count [4] was 0 of 5. For the same compound, the survivor count [5] was 0 of 5.
For Clc1nc2nc[nH]c2nc1Cl, the survivor count (dose: 50.0 mg/kg/injection, schedule: Q04DX003 (ip), vehicle: saline with Tween-80) was 6 of 6 and the survivor count (dose: 100.0 mg/kg/injection, schedule: Q04DX003 (ip), vehicle: saline with Tween-80) was 6 of 6.
CC(O)(CO)C(C)(O)C(C)(O)c1cn(O)c(=N)c(C(=O)OCc2ccccc2)n1 (centres undefined) was tested, and the survivor count (dose: 400.0 mg/kg/injection, schedule: Q04DX003 (ip), vehicle: saline) was 1 of 6.
With O=C(c1ccc([N+](=O)[O-])cc1)C(Br)C(Br)c1ccncc1 (centres undefined) the survivor count (dose: 400.0 mg/kg/injection, schedule: Q01DX009 (ip), vehicle: other) was 3 of 6.
For FC(F)(F)c1nc2nc(Cl)c(Cl)nc2[nH]1, the T/C (dose: 100.0 mg/kg/injection, schedule: Q04DX003 (ip), vehicle: other) was 127 % of control [5 of 6 alive].
For [O-]c1n[n+](Cc2ccc(Cl)cc2)no1, the survivor count (dose: 400.0 mg/kg/injection, schedule: Q04DX003 (ip), vehicle: Klucel (hydroxypropylcellulose) (HPC)) was 6 of 6.
